# In all, about 360,000 compounds went through this assay and about 7,500 (2.1%) were called active. Inconclusive results, whose numbers are uncertain, are shown with a selection of clear calls. The call rests on the fitted dose curve; in most records, active means well fitted inhibition curve with a large enough effect; inconclusive means small, poorly fitted or top-dose-only effect, or effect the other way; inactive means flat fitted curve, though single readings scatter. Where the call is inconclusive, the potency comes from a doubtful curve fit.
# Assay: Nrf2 qHTS screen for inhibitors; further: nearly all actives have a fitted effect of over 60% in size
# Conditions: A549 ARE-Fluc reporter, luciferase luminescence, 18-24 h; series mostly up to 46 µM
# Outline: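 Two sequential reads on A549 ARE_Fluc cells exposed to compound for 18-24 h: a CellTiter-Fluor fluorescence read for viability, then a luciferase luminescence read for Nrf2/ARE activity.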
# Potency means the concentration at half of the fitted maximal effect.
row,SMILES,Potency
1,Cc1ccc(S(=O)(=O)N(C)Cc2ccc(C(=O)N/N=C/c3ccc(OC(F)F)cc3)cc2)cc1,active: 5.8 µM
2,O=C(Nc1nc2cc3c(cc2s1)OCCO3)c1ccncc1,"inconclusive: 29.1 µM [falling, single point]"
3,COc1ccccc1-c1cc2nc(C)c(CCC(=O)NCc3ccco3)c(C)n2n1,"inconclusive: 23.1 µM [falling, partial curve]"
4,COc1ccc(-c2cc3ccccc3s2)cc1[C@H]1[C@H]2C=CC[C@@H](C)[C@@H]2C(=O)N1Cc1ccccc1,"inconclusive: 3.66 µM [activator, full curve]"
5,Cc1cc(C)n2nc(-c3ccc(Cl)cc3)cc2n1,"inconclusive: 7.31 µM [activator, partial curve]"
6,Cc1ccc(C(=O)N/N=C/c2cn(Cc3ccccc3)c3ccccc23)cn1,"inconclusive: 20.6 µM [falling, single point]"
7,COCCNC(=O)CSCc1nc(-c2ccc(SC)cc2)oc1C,inactive
8,O=C(Cc1cccc([N+](=O)[O-])c1)Nc1cccc(C(=O)N2CCCCC2)c1,"inconclusive: 14.6 µM [falling, partial curve]"
9,Fc1ccc(-c2c[nH]c(=S)n2Cc2ccccc2)cc1,inactive
10,Cc1ccc(NC2=C(NCCO)C(=O)c3ccccc3C2=O)cc1,"inconclusive: 29.1 µM [falling, single point]"
11,CCOc1ccc(-c2nnn(CC(=O)NCc3ccc(F)cc3)n2)cc1OCC,"inconclusive: 16.4 µM [falling, partial curve, poor fit]"
12,Cc1ccccc1NS(=O)(=O)c1cc(C(=O)Nc2cccc(N(C)S(C)(=O)=O)c2)ccc1C,active: 18.4 µM
13,COc1cc(OC)c2c(c1C(CCN1CCCC1)c1ccc(N(C)C)cc1)OC(=O)CC2c1ccc(N(C)C)cc1 (configuration not stated),inactive
14,Cc1c(OCC(=O)OC(C)C)ccc2c3c(c(=O)oc12)CCC3,inactive
15,O=C(NNc1ccccc1[N+](=O)[O-])Nc1ccccc1,"inconclusive: 4.61 µM [activator, partial curve, poor fit]"
16,COc1ccccc1Cn1cc(C(=O)c2ccccc2)c(=O)c2cc(OC)c(OC)cc21,inactive
17,CCc1ccc(NC(=S)NC2CCN(Cc3ccccc3)CC2)cc1,inactive
18,Cc1cnc(NC(=O)Nc2ccc(Cl)cc2)s1,"inconclusive: 29.1 µM [activator, single point]"
19,O=c1[nH][nH]c(C(F)(F)F)c1C=Nc1ccccc1Cl,"inconclusive: 0.116 µM [activator, full curve, poor fit]"
20,Cc1ccc2c(CC(=O)Nc3nc(C)cs3)coc2c1,"inconclusive: 20.6 µM [activator, partial curve, poor fit]"
21,Cc1ccccc1NC(=O)COC(=O)c1cccc(S(=O)(=O)N2CCCCC2)c1,"inconclusive: 29.1 µM [falling, single point]"
22,Cc1ccc(-n2c(C)nc3c(cnn3-c3ccc(F)cc3)c2=O)cc1,active: 14.6 µM
23,Cn1cc(Cl)c(C(=O)NC(=S)Nc2sc3c(c2C#N)CCCCC3)n1,"inconclusive: 7.31 µM [activator, partial curve]"

# Another view of part of the listing above:
row	SMILES	Potency
19	O=c1[nH][nH]c(C(F)(F)F)c1C=Nc1ccccc1Cl	inconclusive: 0.116 µM [activator, full curve, poor fit]
20	Cc1ccc2c(CC(=O)Nc3nc(C)cs3)coc2c1	inconclusive: 20.6 µM [activator, partial curve, poor fit]

# (further entries)

row,SMILES,Potency
1,CCOc1ccc2c(c1)-c1c(ssc1=S)C(C)(C)N2,"inconclusive: 18.4 µM [falling, single point]"
2,CN(C)S(=O)(=O)c1cccc(NC(=O)Cc2ccc(-c3ccccc3)cc2)c1,active: 13 µM
3,Cc1ccc([N+](=O)[O-])cc1Nc1nc(N2CCCC2)nc(N2CCCC2)n1,"inconclusive: 29.1 µM [falling, single point]"
4,O=C(CSc1ncnc2ccccc12)c1cccs1,"inconclusive: 8.2 µM [activator, partial curve]"
5,O=C(c1cc(-c2ccncc2)nc2ccccc12)N1CCN(c2ncccn2)CC1,inactive
6,O=[N+]([O-])c1ccc2cn(-c3ccccc3)nc2c1,"inconclusive: 18.4 µM [activator, single point]"
7,Cc1ccccc1NC(=O)c1cc2c([nH]c1=O)CC(C)(C)CC2=O,"inconclusive: 0.259 µM [activator, full curve]"
8,S=C(Nc1ccc(Br)cc1Cl)N1CCCC1,"inconclusive: 4.11 µM [activator, full curve, poor fit]"
9,COc1ccc(CN2CCN(CC(O)Cn3c4ccccc4c4ccccc43)CC2)cc1 (configuration not stated),inactive
10,CC(Nc1nc(-c2cccnc2)nc2ccccc12)c1ccc(F)cc1 (configuration not stated),"inconclusive: 32.6 µM [activator, single point]"
11,O=C(NCC1CCCO1)c1cc2cc(Cl)ccc2[nH]1 (configuration not stated),"inconclusive: 29.1 µM [falling, single point]"
12,Cc1cc(C)c2cccc(NC(=S)NC(=O)c3ccccc3)c2n1,inactive
13,CCN(CC)C(=O)CSc1n[nH]c(=O)n1CCc1ccccc1,inactive
14,Cc1nn(-c2ccc(F)cc2)c(Cl)c1/C=C(/CCC(=O)O)c1nc2ccccc2s1,inactive
15,COc1ccc2c(c1)sc(=NC(=O)CS(=O)(=O)c1ccc(F)cc1)n2C,"inconclusive: 20.6 µM [falling, single point]"
16,COc1ccc(NC(=O)CCCOc2cc(=O)n(C)c3ccccc23)c(OC)c1,"inconclusive: 20.6 µM [falling, single point]"
17,CCCn1c2ccccc2c2cnn(CC(=O)NCCc3ccc(S(N)(=O)=O)cc3)c(=O)c21,"inconclusive: 18.4 µM [activator, single point]"
18,CCOC(=O)c1cccc(NC(=O)c2ccc(NC(=O)C3CCCO3)cc2)c1 (configuration not stated),active: 11.6 µM
19,CCNC(=O)COC(=O)c1sccc1C,"inconclusive: 18.4 µM [activator, partial curve, poor fit]"
20,Cc1c(OCC(=O)NCc2ccncc2)ccc2c3c(c(=O)oc12)CCCC3,"inconclusive: 7.31 µM [falling, partial curve]"
21,COc1ccc(N2C(=O)/C(=C3/C=CC=CN3C)SC2=S)cc1,"inconclusive: 7.31 µM [activator, partial curve]"
22,O=C(NCc1ccccc1)c1ccc(=O)oc1,"inconclusive: 18.4 µM [activator, partial curve]"
23,Cn1c(NCc2cccc(Cl)c2)nc2ccccc21,"inconclusive: 9.2 µM [activator, partial curve, poor fit]"

row,SMILES,Potency
1,CCOC(=O)c1ccccc1NC(=O)COC(=O)CCC(=O)c1ccccc1,inactive
2,CCCNC(=O)COc1ccccc1[N+](=O)[O-],"inconclusive: 29.1 µM [activator, single point]"
3,CCOC(=O)C1CCN(C(=O)c2ccc3c(c2)NC(=O)/C(=C\c2ccc(C)cc2)S3)CC1,"inconclusive: 18.4 µM [falling, single point]"
4,COc1cc(OC)c(NC(=O)C2=C(C)C(=O)OC23CCN(C(C)=O)CC3)cc1Cl,"inconclusive: 29.1 µM [activator, single point]"
5,Cc1cc(/C=N/NC(=O)c2ccncc2)c(C)n1-c1ccccc1,"inconclusive: 8.2 µM [activator, partial curve]"
6,Nn1c(Nc2ccccc2)nc2ccccc21,"inconclusive: 9.2 µM [activator, partial curve]"
7,CC(C)=CCC/C(C)=C/CNC(=O)C[C@H]1C[C@H](C(=O)N(C(C)C)C(C)C)[C@@]2(C)c3[nH]c4cc(CCC(=O)N(C)C)ccc4c3CCN2C1=O,active: 20.6 µM
8,COc1ccc(OCc2cc(C(=O)N3CCSCC3)no2)c(Cl)c1,"inconclusive: 14.6 µM [activator, partial curve]"
9,Cc1ccnc(N2C(=O)c3ccccc3C2Nc2ccccc2Cl)c1 (configuration not stated),"inconclusive: 20.6 µM [activator, partial curve, poor fit]"
10,Cc1ccc(CSc2nc3cccnc3n2Cc2ccc(C(=O)NC3CC3)cc2)cc1,"inconclusive: 29.1 µM [activator, single point]"
11,COc1ccc(N2CCN(c3ccc(C(=O)O)cc3[N+](=O)[O-])CC2)cc1,"inconclusive: 25.9 µM [activator, single point]"
12,Fc1ccc(NC(=S)N2N=CCC2c2ccccc2)cc1 (configuration not stated),"inconclusive: 9.2 µM [activator, partial curve, poor fit]"
13,Cc1ccc(C(=O)N(CCc2ccccc2)Cc2ccccc2)cc1S(=O)(=O)N1CCOCC1,"inconclusive: 23.1 µM [falling, single point]"
14,Cc1ccc(NC(=O)Cc2csc(-c3ccccc3)n2)cc1F,"inconclusive: 18.4 µM [falling, single point]"
15,COc1ccc(Cn2c(C(=O)O)c(CNCc3ccco3)c3ccc(C)cc32)cc1,"inconclusive: 32.6 µM [falling, single point]"
16,COC(=O)c1ccc2nc(NC(=O)C3CC3)sc2c1,"inconclusive: 13 µM [activator, partial curve]"
17,Cc1ccc(C)c(NC(=O)Nc2cc3c(cc2N2CCCCC2)n(C)c(=O)n3C)c1,"inconclusive: 29.1 µM [falling, single point]"
18,CC(C)(CO)NS(=O)(=O)c1ccc2c(c1)Cc1cc(S(=O)(=O)NC(C)(C)CO)ccc1-2,"inconclusive: 16.4 µM [falling, partial curve, poor fit]"
19,Cc1ccc(-c2nnn(CC(=O)N(CC(=O)NC3CCCCC3)c3ccc(F)c(Cl)c3)n2)o1,"inconclusive: 29.1 µM [falling, single point]"
20,Cc1sc2ncnc(OCC(=O)N3CCN(S(=O)(=O)c4ccccc4)CC3)c2c1C,"inconclusive: 29.1 µM [falling, single point]"
21,CCOc1ccccc1CNC(=O)c1cnn(-c2ccc(C)cc2)c1-n1cccc1,"inconclusive: 29.1 µM [falling, single point]"

# Source: PubChem BioAssay AID504444 (National Center for Advancing Translational Sciences (NCATS), 2011)
